# Primary screen of a compound library

Results are given as percent effect. The controls that fix the scale are not given in the record; negative values are as filed. The compounds are a random part of those screened.

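Assay of Toxoplasma gondii numbers, read through their beta-galactosidase reporter with a colour substrate. Tested at 10 µM. Higher reads as fewer parasites (inferred from which compounds were picked for retests). About 67,000 compounds were tested under these conditions; 0.38% (about 260) showed 50% or more at least once.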

SMILES,percent effect
CCNC(=O)NC(=O)CNc1cc(C(=O)OC)cc(C(F)(F)F)c1,-4.503
c1ccc(-c2nnn3c2COC(CNCC2CC2)C3)cc1 (configuration not stated),6.324
Cc1cnn(C2CCCN(C(=O)c3ccc4c(c3)CCC4)C2)c1 (configuration not stated),11.23
Cl.NC1CCc2nc(-c3ccncc3)nc(Nc3cccc(F)c3)c2C1 (configuration not stated),92.97
Cc1ncsc1CN1CCn2c(COCC3CC3)cnc2C1C.O=C(O)C(F)(F)F (configuration not stated),4.283
CN(C)CCNC(=O)CCC1CCN(C(=O)c2ccc(Cl)cc2O)CC1,12.27
O=C(O)C(F)(F)F.[H][C@@]12CCN(CC3CCOCC3)C[C@]1([H])O[C@@H](C(=O)N1CCC(C)CC1)C2,6.276
CCC(CC)CN1CCC2(CCC(=O)N2OCc2ccccc2F)CC1,0
COCc1ncc(CN2CCC(Oc3ccccc3OC)CC2)cn1,-7.904
CCCOC1Sc2nnc(C)n2N=C1c1ccccc1 (configuration not stated),10.13
Fc1ccc(C2(NCc3ccccc3)CCOCC2)cc1,1.212
Cc1noc(C2CCCN(C(=O)c3cccc(Cl)c3)C2)n1 (configuration not stated),-6.824
CC1CCN(S(=O)(=O)N2Cc3ccccc3C[C@H]2C(N)=O)CC1,-6.672
CC(C)[C@@H]1CN(CCOc2ccc(Cl)cc2)C[C@H]1NS(C)(=O)=O,14.61
O=C(O)C(F)(F)F.[H][C@]12CC[C@@]3(N=C(C)N(CC4CC4)C3=O)[C@@]1([H])CN(CC(=O)N(C)C)C2,-14.57
Cc1noc(C(C)N2CCN(CCC(=O)N3CCCCC3)CC2)n1 (configuration not stated),0.6536
Cc1ccc(CN(C)C(=O)c2cnsn2)cc1,-13.46
[H][C@@]12CNC[C@]1([H])N(C(=O)c1ccco1)CCO2,0.2084
Cc1cn2c(n1)CCC(NC(=O)c1cc(Br)cn1C)C2 (configuration not stated),2.311
CC(C)[C@H](CO)Nc1nccc(-c2c[nH]nc2-c2ccncc2)n1,24.13
Cn1ccc(C(=O)N2CCC3(CCC(=O)N(C4CCCC4)C3)CC2)n1,4.255
CCO[C@H]1CCN(S(=O)(=O)c2cn(C)cn2)[C@H]1Cc1ccccc1.O=C(O)C(F)(F)F,4.31
COC(=O)[C@@H]1Cc2ncn(C)c2CN1S(=O)(=O)c1ccc(C)cc1,-0.7685
CN(Cc1cnn(C)c1)C(=O)Cn1c(CS(C)(=O)=O)nc2ccccc21,1.257
CC(C)NC(=O)N1CCC(c2nccn2C(C)C)CC1,-10.14
CC(=O)c1cc(CN2C[C@@H](NS(=O)(=O)N(C)C)[C@H](C(C)C)C2)cs1,-1.816
CCS(=O)(=O)N1CCC(NC(=O)c2cc(C)ccc2O)CC1,13.69
COC(=O)c1occc1Cn1cc(Br)cn1,-17.16
CS(=O)(=O)c1cccc(S(=O)(=O)NCCCN2CCNC(=O)C2)c1,-2.7
CCn1ccnc1CN(C)Cc1nc(Cc2ccccc2F)no1,-5.351
CCn1nc(C)cc1C(=O)NCc1cccnc1N(C)C,-10.09
CC(C)Oc1ccccc1C(=O)NCCc1nncn1C,5.959
O=S(=O)(c1cccnc1)N1CCC(OCCCc2ccccc2)C1 (configuration not stated),-2.462
Cc1nc2sccn2c1C(=O)N1CCc2c(nc(N(C)C)[nH]c2=O)C1,-5.014
O=S(=O)(C1CC1)N1CC[C@H](OCC2CC2)[C@@H]1Cc1ccncc1,2.66
COc1cc(NC(=O)c2ccc(Cl)cc2F)c(C(=O)N(C)C)cc1OC,14.19
Cc1ccsc1CN(C)Cc1nc2c(cnn2C)c(=O)[nH]1,-23.38
Cc1ccc(CNC(C)c2ccc(OCC(=O)NC3CC3)cc2)o1 (configuration not stated),-10.39
Cc1nc(-c2ccco2)ccc1C(=O)N1CCCC1Cn1cccn1 (configuration not stated),-0.9561
CCc1ncc(C(=O)N2CCN(C(=O)COc3ccccc3)CC2)cn1,4.161
O=C(CNC(=O)N(Cc1ccoc1)C1CCCCC1)N1CCCC1,5.959
CCC1CN(C(=O)c2cccnc2O)CCC(=O)N1Cc1ccccc1 (configuration not stated),8.93
O=C(Cn1c(=O)n(Cc2ccco2)c2ncccc21)Nc1ccccn1,11.08
O=C(Nc1nc(-c2ccccc2)ns1)N1CCN(C(=O)C2CC2)CC1,6.944
COCCN1CC2(CCCN(c3ncc(Cl)cc3F)C2)CCC1=O (configuration not stated),3.816
O=C(O)C(F)(F)F.O=C(O)C(F)(F)F.O=C(O)C(F)(F)F.O=C1NC2(CCN(Cc3cccnc3)CC2)CC1c1cccnc1 (configuration not stated),3.746

Repeated from the top, 2 entries:

| SMILES | percent effect |
|---|---|
| `CCNC(=O)NC(=O)CNc1cc(C(=O)OC)cc(C(F)(F)F)c1` | -4.503 |
| `c1ccc(-c2nnn3c2COC(CNCC2CC2)C3)cc1` (configuration not stated) | 6.324 |

Data taken from ChEMBL document CHEMBL3988442, “University of Dundee, Small-Polar-MMV Screening Library” (2021).